From PubChem BioAssay AID445 (National Center for Advancing Translational Sciences (NCATS), 2006)
The list shows a part of the results. These are further read-outs of the screen, such as a control signal, another cell line or another target. No call is given for them. Most of these compounds were active or inconclusive in the main read-out, so they are no random draw. The note in brackets gives the kind of curve behind each potency; many fits are weak.

Assay: IkB Signaling
Conditions: ABC-DLBCL IkBa-CBG/CBR dual luciferase ratio (green luciferase fused to IkBa over red control in OCI-Ly3 lymphoma cells), 4 h
Method in brief: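 Curves were fitted separately to fusion (green), unfused (red) and ratio luminescence, then classed by r2, magnitude and activity. Cells: OCI-Ly3, 4 h compound plus doxycycline at 37C; 10 uM MG-132 defined full response.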

[1] = measured here: control luc red channel unless noted

CC(C)c1ccc(NC(=O)c2cnc3sc(N4CCOCC4)nn3c2=O)cc1
AC50 [1]: 39.8 µM [falling, single point]

COc1ccc(NC(=O)CN(C)S(=O)(=O)c2ccc3c(c2)c(=O)n(C)c(=O)n3C)cc1
AC50 [1]: 7.94 µM [falling, partial curve]

COc1ccc(OC)c(NC(=O)Cn2cnc3onc(-c4ccc(Cl)cc4)c3c2=O)c1
AC50 [1]: 0.2 µM [falling, full curve]

COc1ccc(-c2nc3ccc(Cl)cn3c2Nc2ccc(C)cc2)cc1
AC50 [1]: 15.8 µM [falling, single point]

CCCCNC(=O)c1cn(C)c2ccc(S(=O)(=O)N3CCCC3)cc2c1=O
AC50 [1]: 2.51 µM [falling, full curve]

Cc1ccc(C(=O)NCC(c2ccco2)S(=O)(=O)c2ccc(Cl)cc2)cc1C (centres undefined)
AC50 [1]: 10 µM [falling, partial curve]

COc1cccc(-c2csc(-c3c(N)c(C(=O)c4ccc5c(c4)OCO5)n4ccccc34)n2)c1
AC50 [1]: 5.01 µM [falling, partial curve]

CCOc1ccc(C2C(C(=O)Nc3ccccc3)=C(C)Nc3nc(-c4ccccc4)nn32)cc1OC (centres undefined)
AC50 [1]: 20 µM [falling, single point]

CCCCn1c(SCc2nnc(-c3ccccc3)o2)nc2c1c(=O)n(C)c(=O)n2C
AC50 [1]: 39.8 µM [falling, partial curve]

Cc1cc(C)n(CCc2nc3c4ccccc4nc(SCc4ccc(F)cc4)n3n2)n1
AC50 [1]: 0.00631 µM [rising, full curve, poor fit]

Cc1ccc(CNC(=O)c2c[nH]c3ccc(S(=O)(=O)N4CCOCC4)cc3c2=O)cc1
AC50 [1]: 0.501 µM [rising, full curve]

COc1cc(NC(=O)Nc2ccccc2OC)c(OC)cc1NC(=O)CN1CCCCC1
AC50 [1]: 0.0794 µM [falling, full curve]

CC(C)c1nn2c(=O)cc(COC(=O)C3CCCCC3)nc2s1
AC50 [1]: 6.31 µM [rising, single point]

Cc1ccc(NC(=O)c2ccc3ccccc3n2)nc1
AC50 [1]: 12.6 µM [falling, partial curve]

COc1ccc(OCc2cccc(C(=O)O)c2)cc1
AC50 [1]: 0.251 µM [falling, full curve]

Cc1ccc(CN(Cc2ccco2)C(=O)c2ccccc2Br)o1
AC50 [1]: 25.1 µM [falling, single point]

Cc1cc(Br)cc(C)c1NC(=O)c1sc2ncn(Cc3cccc(F)c3)c(=O)c2c1C
AC50 [1]: 0.631 µM [falling, full curve]

Cc1ccccc1N1C(=O)c2cccc3c(N(C)CCO)ccc(c23)C1=O
AC50 [1]: 25.1 µM [falling, partial curve]

Cn1c(=O)c2c(nc(CN3CCc4ccccc4C3)n2Cc2cccc(Cl)c2)n(C)c1=O
AC50 [1]: 10 µM [falling, partial curve]

Cc1ccc(-n2cnc3cc(C(=O)NCCC4=CCCCC4)ccc32)c(C)c1
AC50 [1]: 39.8 µM [falling, single point]

Cc1ccc(-c2cc3c(nn2)-c2ccccc2C3=O)cc1
AC50 [1]: 3.98 µM [falling, full curve]

CCC(c1nnnn1CS(=O)(=O)c1ccc(C)cc1)N1CCN(c2nc3ccccc3s2)CC1 (centres undefined)
AC50 [1]: 25.1 µM [falling, partial curve]

CCc1ccc(NC(=O)c2sc(-n3nc(C)c(CCC(C)C)c3C)nc2C)cc1
AC50 [1]: 0.631 µM [falling, full curve, poor fit]

COc1ccc(OCc2ccc(C(=O)O)cc2)cc1
AC50 [1]: 10 µM [falling, partial curve]

COc1ccc(NC(=O)c2ccc3oc(=O)c(S(=O)(=O)c4ccc(F)cc4)cc3c2)cc1OC
AC50 (measured here: IkB-luc green channel): 5.01 µM [rising, full curve]
AC50 (measured here: control luc red channel): 6.31 µM [falling, partial curve]

Cc1c(C(=O)Nc2ccc(F)cc2F)oc2c1-c1nn(Cc3c(F)cccc3Cl)cc1CC2
AC50 [1]: 31.6 µM [falling, single point]

O=C(NC1CC(=O)N(c2ccc(F)cc2)C1)C1CCCC1 (centres undefined)
AC50 [1]: 3.16 µM [rising, partial curve]

COc1ccc(C)cc1NC(c1nnc(-c2ccccc2)o1)c1ccc(F)cc1Cl (centres undefined)
AC50 [1]: 5.01 µM [falling, partial curve, poor fit]

O=C(CN1CCN(C(=O)c2ccco2)CC1)Nc1ccc(Cl)c(C(F)(F)F)c1
AC50 [1]: 12.6 µM [falling, partial curve]

CCc1ccc(N2CC(c3nnc(NC(=O)c4ccco4)s3)CC2=O)cc1 (centres undefined)
AC50 [1]: 12.6 µM [falling, partial curve]

CCOC(=O)c1nnn(-c2nonc2N)c1CNc1ccc(C)c(Br)c1
AC50 [1]: 20 µM [falling, partial curve]

COc1ccccc1NC(=O)CSc1oc(-c2ccco2)nc1S(=O)(=O)c1ccc(C)cc1
AC50 [1]: 0.316 µM [falling, full curve]

CCOc1ccc(NC(=O)c2oc3ccccc3c2NC(=O)C(C)(C)C)cc1
AC50 [1]: 31.6 µM [falling, single point]

Cc1nn(-c2cccc(Cl)c2)c2c1C(c1cccnc1)C(C#N)=C(N)O2 (centres undefined)
AC50 [1]: 39.8 µM [falling, single point]

O=C(CC1N=C2c3ccccc3N=C(SCC(=O)Nc3ccc(F)cc3)N2C1=O)NCc1ccco1 (centres undefined)
AC50 [1]: 12.6 µM [falling, partial curve]

CS(=O)(=O)Nc1cccc(-c2ccc3ncnc(N4CCOCC4)c3c2)c1
AC50 [1]: 3.98 µM [rising, partial curve]

Cc1ccc(C(=O)Nc2nnc(S(=O)(=O)N(C)Cc3ccc(Cl)cc3)s2)cc1
AC50 [1]: 2 µM [falling, full curve]

COc1cc(Nc2ncc3c(n2)CCN(Cc2ccc(OC(C)C)c(OC)c2)C3)cc(OC)c1
AC50 [1]: 39.8 µM [falling, partial curve]

CCc1nn2c(=O)cc(COC(=O)c3ccc(NC(=O)COc4ccccc4C)cc3)nc2s1
AC50 [1]: 7.94 µM [rising, single point]

Cc1ccc(-c2nnc3n2N=C(c2ccccc2Br)CS3)cc1
AC50 [1]: 39.8 µM [falling, single point]

COc1ccc(CCNc2nc(C)nc3c2oc2ccccc23)cc1OC
AC50 [1]: 3.98 µM [falling, full curve]

Cc1ccc(CN2CCCn3nc(C(=O)NCc4ccc(N(C)C)cc4)cc3C2=O)cc1
AC50 [1]: 3.98 µM [falling, partial curve, poor fit]

COc1ccc(CCNc2nc3c(-c4cccc(C(F)(F)F)c4)nnn3c3ccccc23)cc1OC
AC50 [1]: 3.98 µM [rising, partial curve, poor fit]

Cc1ccc(N=Cc2ccc(O)cc2O)cc1F
AC50 [1]: 12.6 µM [rising, partial curve] [measured here: IkB-luc green channel]

CCOc1ccc(NCc2nnc(SCC(=O)Nc3cc(C)on3)n2-c2ccccc2OC)cc1
AC50 [1]: 0.0501 µM [falling, full curve]

COc1ccc(-c2cnn(-c3ccccc3)c2N)cc1OC
AC50 [1]: 5.01 µM [falling, partial curve]

O=C(O)CCCC(=O)Nc1ccc(N2CCCC2)cc1
AC50 [1]: 3.98 µM [falling, partial curve]

CC(C)CNC(=O)Nc1cc(C(=O)NCc2ccc(C(C)C)cc2)ccc1N1CCCC1
AC50 [1]: 10 µM [falling, partial curve]

CCOC(=O)c1sc2ncn(CC(=O)Nc3cc(Cl)ccc3C)c(=O)c2c1C
AC50 [1]: 0.126 µM [falling, full curve, poor fit]

COc1cccc(NC(=O)C2CCN(c3ncccn3)CC2)c1
AC50 [1]: 31.6 µM [falling, single point]

CC(=O)c1ccc(N2CCN(C(=O)c3cc(S(=O)(=O)N4CCCCCC4)cn3C)CC2)cc1
AC50 [1]: 10 µM [falling, full curve, poor fit]

CC(=O)Nc1cccc(NC(=O)CSc2nccn2Cc2ccc3c(c2)OCO3)c1
AC50 [1]: 39.8 µM [falling, single point]

COc1cc(NC(=O)CN(c2ccc(C)cc2)S(=O)(=O)c2c(C)n[nH]c2C)cc(OC)c1
AC50 [1]: 1.58 µM [falling, partial curve]

CCOc1ccc(-c2nc(CSCC(=O)N3CCN(C(=O)c4ccco4)CC3)c(C)o2)cc1
AC50 [1]: 15.8 µM [falling, partial curve]

CC(C)CCN(C(=O)Nc1ccc(Cl)c(Cl)c1)C1CCN(C(C)C)CC1
AC50 [1]: 25.1 µM [falling, partial curve, poor fit]

O=C(c1noc2c1CCCCC2)N1CCN(c2cccc(Cl)c2)CC1
AC50 [1]: 25.1 µM [falling, partial curve]

Cc1ccc(NC(=O)N2CC3CCCN3c3ccccc32)cc1Cl (centres undefined)
AC50 [1]: 25.1 µM [falling, single point]

O=C(Cn1ncc2c3ccccc3n(Cc3ccccc3F)c2c1=O)N1CCCCCC1
AC50 [1]: 15.8 µM [falling, partial curve]

O=C(COc1ccc(Cl)cc1)Nc1nc(-c2cccs2)cs1
AC50 [1]: 39.8 µM [rising, single point] [measured here: IkB-luc green channel]

CCCCC(=O)Nc1cc2nn(-c3ccc(OC)cc3)nc2cc1C
AC50 [1]: 0.316 µM [rising, full curve, poor fit]

COC(=O)c1c(C)n(-c2ccccc2)c2ccc(O)cc12
AC50 [1]: 15.8 µM [falling, partial curve]

CCc1ccccc1NC(=O)Cn1nnc2sc3c(c2c1=O)CCC(C(C)(C)C)C3 (centres undefined)
AC50 [1]: 20 µM [falling, single point]

O=C(c1cc2ccc3cccnc3c2[nH]1)N1CCCCC1
AC50 [1]: 0.794 µM [falling, full curve]
